# Measured values as given in PubChem BioAssay AID504444 (National Center for Advancing Translational Sciences (NCATS), 2011).
# Out of some 360,000 compounds screened, about 7,500 (2.1%) were called active. Inconclusive means that the source gave no clear call. Such entries were picked first, then a sample of the others. The call rests on the fitted dose curve; in most records, active means well fitted inhibition curve with a large enough effect; inconclusive means small, poorly fitted or top-dose-only effect, or effect the other way; inactive means flat fitted curve, though single readings scatter. Potencies of inconclusive entries are doubtful fits and often do not repeat.
# Experiment: Nrf2 qHTS screen for inhibitors; further: nearly all actives have a fitted effect of over 60% in size
# Settings: A549 ARE-Fluc reporter, luciferase luminescence, 18-24 h; activity change, negative = inhibition: at 46 µM (top of the series)
# Outline: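 A549 ARE_Fluc cells (5000/well, 5% FBS OPTI-MEM) pre-incubated 2 h, then treated with compounds 18-24 h at 37C/5% CO2 in concentration-response. CellTiter-Fluor viability read first; BugLite luciferase luminescence after 15 min at room temperature gives Nrf2 activity.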
# On the % scale 0 is the no-effect control and ±100 the full control effect; potency means the concentration at half of the fitted maximal effect.
Structure (SMILES),"activity change, negative = inhibition",Potency
COCCNc1nc2ccccc2nc1NS(=O)(=O)c1ccc(C)cc1C,inactive: -19.2%,
COc1cccc2c1OCC(C(=O)Nc1nccs1)=C2,,"inconclusive: 8.2 µM [activator, partial curve]"
CC(=O)Nc1ccc(S(=O)(=O)N2CCN=C2SCc2cccnc2)cc1,,"inconclusive: 18.4 µM [falling, partial curve]"
COCCNc1ncnc2c1cnn2-c1ccc(Cl)cc1,,"inconclusive: 2.91 µM [activator, partial curve]"
O=C1NC(O)(c2ccccc2)Oc2ccccc21 (centres undefined),,"inconclusive: 10.3 µM [activator, partial curve, poor fit]"
CC(=O)N1c2ccc(S(=O)(=O)Nc3ccc(C)c(C)c3)cc2CC1C (centres undefined),,active: 10.3 µM
O=C(Nc1cccc2ccccc12)N1CC=CCC1,inactive: -2.61%,
CC(C)CC(NC(=O)c1cccs1)c1nnc(SCc2ccc(Cl)c(Cl)c2)n1C (centres undefined),,"inconclusive: 20.6 µM [falling, single point]"
Cc1cc(NC(=O)CSc2nc(C(C)C)nc3sc4c(c23)CCCC4)no1,,"inconclusive: 20.6 µM [falling, single point]"
Cc1ccnc(NS(=O)(=O)c2ccc(NC(=O)c3ccc(N4C(=O)CCC4=O)cc3)cc2)n1,,"inconclusive: 0.0731 µM [falling, full curve, poor fit]"
O=C(Nc1ccc(OC(F)(F)F)cc1)c1cnccn1,,"inconclusive: 16.4 µM [activator, partial curve]"
NC(=O)c1ccsc1NC(=O)c1ccc(N2CCCC2=O)cc1,,"inconclusive: 0.651 µM [activator, full curve]"
CC1=NN(S(=O)(=O)c2ccc(C)cc2)C(=O)c2ccccc2O1,,"inconclusive: 9.2 µM [falling, partial curve, poor fit]"
O=[N+]([O-])c1cccc(S(=O)(=O)Nc2cccc(-c3ccc(N4CCOCC4)nn3)c2)c1,inactive: -7.53%,
COc1ccc(/C=N/NC(=O)c2ccoc2C)cc1CN1CCN(c2ccc(F)cc2)CC1,inactive: 8.33%,
Cc1noc(C)c1C(=O)OCC(=O)c1c(N)n(CC(C)C)c(=O)n(C)c1=O,,"inconclusive: 0.461 µM [activator, partial curve, poor fit]"
O=C(Nc1ccc(Cc2ccncc2)cc1)C1CCC(N2C(=O)C3C4C=CC(C4)C3C2=O)CC1 (centres undefined),,"inconclusive: 16.4 µM [falling, partial curve]"
O=C(NCC1CCCN1S(=O)(=O)c1cccs1)c1cccc(Cl)c1 (centres undefined),,"inconclusive: 18.4 µM [falling, single point]"
Nc1c(C(=O)c2cccs2)oc2ccccc12,inactive: 8.88%,

# An excerpt of these results, tab-delimited:
Structure (SMILES)	activity change, negative = inhibition	Potency
CC(=O)N1c2ccc(S(=O)(=O)Nc3ccc(C)c(C)c3)cc2CC1C (centres undefined)		active: 10.3 µM
O=C(Nc1cccc2ccccc12)N1CC=CCC1	inactive: -2.61%	
CC(C)CC(NC(=O)c1cccs1)c1nnc(SCc2ccc(Cl)c(Cl)c2)n1C (centres undefined)		inconclusive: 20.6 µM [falling, single point]
Cc1cc(NC(=O)CSc2nc(C(C)C)nc3sc4c(c23)CCCC4)no1		inconclusive: 20.6 µM [falling, single point]
